Results on 40 compounds are retold here after PubChem BioAssay AID445 (National Center for Advancing Translational Sciences (NCATS), 2006).

Broadly, the AC50 is the midpoint of the concentration-response curve, whichever way the signal moves.

This is one part of the list. These are further read-outs of the screen, such as a control signal, another cell line or another target. No call is given for them. Compounds called inactive in the main read-out are mostly missing here. Potencies come from curve fits of mixed quality, noted in brackets.

The assay in a line: IkB Signaling. The note with it: ABC-DLBCL IkBa-CBG/CBR dual luciferase ratio (green luciferase fused to IkBa over red control in OCI-Ly3 lymphoma cells), 4 h. In outline: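 In this assay, an IκBα–CBG68 fusion accumulates when IKK-driven degradation is blocked; native CBR normalizes for cell number. OCI-Ly3 cells were treated 4 h with compound and doxycycline, then green and red light read after Chroma-Glo addition.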
[1] abbreviates: measured here: control luc red channel unless noted.
Where [2] appears, read: measured here: IkB-luc green channel.
Setting [3] is: measured here: control luc red channel.

For `COc1ccc(Br)cc1CNC(=O)c1cc(=O)[nH]c2ccc(S(=O)(=O)N3CCCCC3C)cc12` (configuration not stated), the AC50 under setting [1] was 31.6 µM [falling, single point].

On to `CCn1cc(C(=O)NCCc2ccccc2)c(=O)c2cc(S(=O)(=O)N3CCCCCC3)ccc21`, for which the AC50 under setting [1] is 6.31 µM [falling, partial curve].

Turning to `Cc1nn(C(C)C(=O)N2CCN(c3ccc(F)cc3)CC2)c(=O)c2c1sc1ccccc12` (configuration not stated), the AC50 under setting [1] is 31.6 µM [falling, single point].

For the compound `Nc1c(C(=O)NCCc2ccccc2)nnn1CC(=O)Nc1ccc(Cl)cc1`, the AC50 under setting [1] is 0.02 µM [falling, full curve, poor fit].

For the compound `C=Cc1ccc(Cn2c(C(=O)O)c(CNCCc3ccccc3)c3ccc(C)cc32)cc1`, under setting [1], the AC50 was 39.8 µM [falling, single point].

Regarding `O=C(CSc1nc2c([nH]c3ccccc32)c(=O)n1-c1ccccc1)c1ccc(Cl)cc1`, the AC50 under setting [1] is 39.8 µM [rising, single point].

For the compound `CCCn1c(CCC(=O)Nc2cccc(C)c2C)nc2cccnc21`, the AC50 under setting [1] was 12.6 µM [falling, partial curve].

On to `CC(C)NS(=O)(=O)c1ccc(OCC(=O)Nc2ccc3c(c2)OCO3)c(Cl)c1`, for which, under setting [1], the AC50 is 15.8 µM [falling, partial curve].

Consider `Cc1ccccc1OCCCCn1c(C2CC(=O)N(c3ccccc3Cl)C2)nc2ccccc21` (configuration not stated), for which the AC50 under setting [1] was 15.8 µM [falling, partial curve].

In the case of `CCOC(=O)C1CCCN(c2c(C(=O)c3ccc(C)cc3)cnc3ccc(OCC)cc23)C1` (configuration not stated), the AC50 under setting [1] is 31.6 µM [falling, partial curve].

As for `O=C(Nc1nc(-c2cccs2)cs1)c1ccc(Cl)s1`, the half-maximal activity concentration (AC50) is 25.1 µM [falling, partial curve] under setting [2] and 7.94 µM [falling, full curve] under setting [3].

With `Cc1ccc2nc(NC(=O)c3ccc(S(=O)(=O)N4CCCc5ccccc54)cc3)sc2c1`, the AC50 under setting [1] was 7.94 µM [falling, full curve, poor fit].

Turning to `O=C(C1CCCCC1)N(Cc1cccnc1)c1nc2c(F)cc(F)cc2s1`, the AC50 under setting [1] is 7.94 µM [falling, partial curve].

For the compound `COc1ccc(OC)c(NC(=O)c2c(NCc3ccc(OC)c(OC)c3)sc3c2CCC(C)C3)c1` (configuration not stated), under setting [1], the AC50 was 39.8 µM [falling, partial curve].

Turning to `Nc1c(C(=O)Nc2cccc(F)c2)sc2nc(-c3cccs3)ccc12`, the AC50 under setting [1] is 7.94 µM [falling, partial curve].

As to `COc1ccccc1-c1cc(C(=O)Nc2c(C)n(C)n(-c3ccccc3)c2=O)no1`, the AC50 under setting [1] was 0.794 µM [falling, full curve].

On to `Cn1c(/C=N/c2nc3ccccc3[nH]2)nc2ccccc21`, for which the AC50 under setting [1] was 15.8 µM [falling, partial curve].

With `O=C(CCCSc1nc2ccccc2s1)NC1=NCCS1`, the AC50 under setting [1] is 5.01 µM [falling, partial curve].

On to `Cc1cc(C)nc(NS(=O)(=O)c2ccc(NC(=O)c3cc(=O)c4ccc(C)c(C)c4o3)cc2)n1`, for which, under setting [1], the concentration at half-maximal activity (AC50) was 39.8 µM [falling, single point].

As to `Cc1ccccc1-c1nc2scc(CCNC(=O)C(=O)Nc3ccc(F)cc3F)n2n1`, the AC50 under setting [1] was 15.8 µM [falling, partial curve].

As for `Cc1oc2ccc(O)c(CN3CCCCC3C)c2c1C(=O)Nc1ccccc1` (configuration not stated), under setting [1], the AC50 is 39.8 µM [falling, single point].

For the compound `O=C(CC(c1cccs1)N1Cc2ccccc2C1=O)Nc1ccc(F)cc1F` (configuration not stated), the AC50 under setting [1] was 20 µM [falling, single point].

Consider `Cc1cccc(CC(=O)NC2CC(=O)N(c3ccccc3)C2)c1` (configuration not stated), for which the concentration at half-maximal activity (AC50) under setting [1] is 3.16 µM [falling, single point].

As for `Cc1ccc(O)c(NC(=O)c2cc(-c3ccc(F)cc3)on2)c1`, the AC50 under setting [1] is 0.01 µM [falling, full curve].

`Cc1ccccc1CSCCNC(=O)C1CCN(S(=O)(=O)Cc2ccccc2)CC1`: under setting [1], the AC50 is 15.8 µM [falling, partial curve].

On to `COc1ccc(NC(=O)CCc2nc3cccnc3n2-c2ccccc2)cc1Cl`, for which, under setting [1], the half-maximal activity concentration (AC50) was 39.8 µM [falling, single point].

Turning to `Cc1cc(-c2ccc(S(=O)(=O)Nc3cc(Cl)ccc3C)s2)on1`, under setting [1], the half-maximal activity concentration (AC50) was 2.51 µM [rising, full curve].

Regarding `COc1ccc(CCNC(=O)c2cc3c(-c4ccc(OC)c(OC)c4)nn(C)c3s2)cc1OC`, under setting [1], the AC50 was 10 µM [falling, partial curve].

In the case of `Cc1ccc(Cn2c(CO)cnc2SCc2cccc(F)c2)cc1`, under setting [1], the AC50 is 39.8 µM [falling, partial curve, poor fit].

Regarding `Cc1ccc(Cl)cc1N1CCN(C(=O)c2ccc(CS(=O)(=O)c3ccc(Br)cc3)o2)CC1`, the AC50 under setting [1] is 10 µM [falling, partial curve].

As for `Cc1c(C)n(Cc2ccccc2)c2ncnc(N)c12`, the AC50 under setting [1] is 12.6 µM [falling, partial curve].

As for `Cc1ccc(N(CC(=O)Nc2ccc(F)cc2F)S(=O)(=O)c2cccs2)cc1`, the AC50 under setting [1] is 10 µM [falling, partial curve].

`CCC(=O)C1=C(c2ccccc2)N(C(=O)CC)n2c(nnc2-c2ccccc2)S1`: the AC50 under setting [1] is 12.6 µM [falling, partial curve].

For the compound `Cc1cccc2cc(CN(Cc3ccco3)C(c3nnnn3CCc3ccccc3)C(C)C)c(=O)[nH]c12` (configuration not stated), the AC50 under setting [1] was 6.31 µM [falling, partial curve].

With `C/C(N)=C(/C#N)C(=O)CSc1nc2cc(Cl)ccc2s1`, the AC50 under setting [1] is 39.8 µM [falling, single point].

In the case of `Cc1ccc(S(=O)(=O)NCCc2nnc3ccc(SCc4ccccc4F)nn23)cc1`, under setting [1], the AC50 was 15.8 µM [falling, partial curve].

`O=C1OC(O)C(C(Cl)Cl)=C1Cl` (configuration not stated): the AC50 by setting is: under setting [2], 1.58 µM [rising, full curve]; under setting [3], 15.8 µM [falling, partial curve].

As for `COc1ccc(C)cc1NC(=O)c1cc2ccccc2o1`, the AC50 under setting [1] was 0.251 µM [rising, partial curve].

For `Nc1nnc(SCc2ccc(F)cc2Cl)s1`, the half-maximal activity concentration (AC50) under setting [1] is 12.6 µM [falling, partial curve].

Turning to `CCN(CC(=O)Nc1ccc2c(c1)CCC2)Cc1nc2ccccc2c(=O)[nH]1`, the AC50 under setting [1] is 31.6 µM [falling, partial curve].
